# Assay results published in PMC8507291.
# No constants are given. Whether binding was seen depends on the method and setting. Binding seen in cells or lysates may run through a third protein. Some results given as binding are weak or reduced against the parent protein; the word gives no strength. For part of these data: Tags and fused reporters may be left off the sequences shown.
# What was measured:
# [1] = target: endogenously expressed p53 (human (endogenous in SK-N-SH and A172)) (UniProt P04637); assay: co-IP; endogenous LHX9 and p53 in SK-N-SH and A172 cell lysate; primary antibody overnight at 4 °C, protein A gel beads 4 h, PBST washes; Western blot
# fusion protein GST-p53 = fusion protein GST-p53 (UniProt P04637); assay: pull-down; 10 μg of GST-p53 fusion protein incubated with SK-N-SH and A172 cell lysate at 4 °C overnight, Sepharose 4B GST gel beads 4 h, washed 3 times with PBST; Western blot; only the target purified
# HA-p53 = HA-p53 (UniProt P04637); assay: co-IP; exogenously expressed Flag-LHX9 and HA-p53; lysate with primary antibody overnight at 4 °C, protein A gel beads 4 h, PBST washes; Western blot
Binder,binding [1],binding (fusion protein GST-p53),binding (HA-p53)
"endogenously expressed LHX9 (protein, UniProt Q9NQ69 1-397) MEIVGCRAEDNSCPFRPPAMLFHGISGGHIQGIMEEMERRSKTEARLAKGAQLNGRDAGMPPLSPEKPALCAGCGGKISDRYYLLAVDKQWHLRCLKCCECKLALESELTCFAKDGSIYCKEDYYRRFSVQRCARCHLGISASEMVMRARDSVYHLSCFTCSTCNKTLTTGDHFGMKDSLVYCRAHFETLLQGEYPPQLSYTELAAKSGGLALPYFNGTGTVQKGRPRKRKSPALGVDIVNYNSGCNENEADHLDRDQQPYPPSQKTKRMRTSFKHHQLRTMKSYFAINHNPDAKDLKQLAQKTGLTKRVLQVWFQNARAKFRRNLLRQENGGVDKADGTSLPAPPSADSGALTPPGTATTLTDLTNPTITVVTSVTSNMDSHESGSPSQTTLTNLF",binds,binds,
"flag-tagged LHX9 (Flag-LHX9) (protein, UniProt Q9NQ69 1-397) MEIVGCRAEDNSCPFRPPAMLFHGISGGHIQGIMEEMERRSKTEARLAKGAQLNGRDAGMPPLSPEKPALCAGCGGKISDRYYLLAVDKQWHLRCLKCCECKLALESELTCFAKDGSIYCKEDYYRRFSVQRCARCHLGISASEMVMRARDSVYHLSCFTCSTCNKTLTTGDHFGMKDSLVYCRAHFETLLQGEYPPQLSYTELAAKSGGLALPYFNGTGTVQKGRPRKRKSPALGVDIVNYNSGCNENEADHLDRDQQPYPPSQKTKRMRTSFKHHQLRTMKSYFAINHNPDAKDLKQLAQKTGLTKRVLQVWFQNARAKFRRNLLRQENGGVDKADGTSLPAPPSADSGALTPPGTATTLTDLTNPTITVVTSVTSNMDSHESGSPSQTTLTNLF",,,binds
